Measured values reported in the supplement of paper PMC12823440, “Inhibitors supercharge kinase turnover through native proteolytic circuits” (Nature, 2025).
Structures can show the parent of a compound that is named as a salt. The list shows a part of the results. Hit calls seldom repeat between salt and free forms of one compound.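 Kinases, fused to nanoluciferase, were expressed in K562 cells; luminescence was measured every 4 h from 2 to 18 h as percent of control (DMSO = 100%, positive control = 0%). A time point is decreased if signal falls significantly (2 sigma). Hits were called by the authors by a rule that is not shown; the count of time points alone does not decide it.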

The chains behind the UniProt entries cited, without tags or fusion partners. Where a name states a change or a piece, a line headed by the entry shows the natural chain unless it says otherwise.
UniProt Q9Y616: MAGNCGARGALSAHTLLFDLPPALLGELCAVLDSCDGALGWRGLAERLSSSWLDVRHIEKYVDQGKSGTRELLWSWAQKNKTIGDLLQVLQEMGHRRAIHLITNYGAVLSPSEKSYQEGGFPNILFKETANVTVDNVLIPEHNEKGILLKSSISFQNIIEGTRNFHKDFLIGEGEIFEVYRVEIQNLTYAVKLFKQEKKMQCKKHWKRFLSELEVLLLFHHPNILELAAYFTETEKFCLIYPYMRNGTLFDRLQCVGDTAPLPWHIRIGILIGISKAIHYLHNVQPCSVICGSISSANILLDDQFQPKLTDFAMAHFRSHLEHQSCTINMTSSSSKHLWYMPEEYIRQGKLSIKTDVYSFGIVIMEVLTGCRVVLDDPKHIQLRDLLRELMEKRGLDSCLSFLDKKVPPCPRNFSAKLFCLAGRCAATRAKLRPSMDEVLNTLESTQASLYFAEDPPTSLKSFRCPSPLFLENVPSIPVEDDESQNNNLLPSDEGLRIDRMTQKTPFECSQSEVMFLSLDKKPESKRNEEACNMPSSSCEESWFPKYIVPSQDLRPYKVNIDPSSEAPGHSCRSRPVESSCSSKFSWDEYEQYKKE
UniProt P23458: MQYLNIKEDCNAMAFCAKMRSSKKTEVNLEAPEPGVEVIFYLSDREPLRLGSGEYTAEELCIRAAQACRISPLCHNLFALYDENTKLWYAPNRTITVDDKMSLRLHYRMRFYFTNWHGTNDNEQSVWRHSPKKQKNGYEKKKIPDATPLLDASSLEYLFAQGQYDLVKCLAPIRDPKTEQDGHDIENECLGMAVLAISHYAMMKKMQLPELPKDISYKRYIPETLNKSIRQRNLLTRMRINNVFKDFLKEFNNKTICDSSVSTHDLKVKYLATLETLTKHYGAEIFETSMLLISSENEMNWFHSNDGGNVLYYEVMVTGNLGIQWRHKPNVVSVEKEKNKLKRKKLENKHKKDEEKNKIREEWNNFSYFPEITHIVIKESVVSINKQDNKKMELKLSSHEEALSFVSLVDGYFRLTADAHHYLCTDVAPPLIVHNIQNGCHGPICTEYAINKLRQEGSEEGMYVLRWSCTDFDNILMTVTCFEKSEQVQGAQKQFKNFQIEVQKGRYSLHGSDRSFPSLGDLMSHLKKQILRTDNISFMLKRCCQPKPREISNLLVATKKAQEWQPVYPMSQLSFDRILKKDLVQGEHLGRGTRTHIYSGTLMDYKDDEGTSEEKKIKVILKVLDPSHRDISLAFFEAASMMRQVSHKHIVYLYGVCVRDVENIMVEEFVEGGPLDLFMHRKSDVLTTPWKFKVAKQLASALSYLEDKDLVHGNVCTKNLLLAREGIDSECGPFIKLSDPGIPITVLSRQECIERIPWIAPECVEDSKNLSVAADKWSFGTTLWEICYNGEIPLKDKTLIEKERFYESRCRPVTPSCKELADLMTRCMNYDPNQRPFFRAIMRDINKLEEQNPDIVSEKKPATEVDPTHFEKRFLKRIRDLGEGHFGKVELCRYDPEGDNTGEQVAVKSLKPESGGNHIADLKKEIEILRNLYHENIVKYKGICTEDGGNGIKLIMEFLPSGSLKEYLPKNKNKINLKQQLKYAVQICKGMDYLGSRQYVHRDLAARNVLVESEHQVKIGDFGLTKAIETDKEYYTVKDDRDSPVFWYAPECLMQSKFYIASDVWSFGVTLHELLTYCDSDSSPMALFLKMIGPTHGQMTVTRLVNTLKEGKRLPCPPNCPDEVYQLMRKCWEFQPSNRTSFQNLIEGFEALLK
UniProt P06239: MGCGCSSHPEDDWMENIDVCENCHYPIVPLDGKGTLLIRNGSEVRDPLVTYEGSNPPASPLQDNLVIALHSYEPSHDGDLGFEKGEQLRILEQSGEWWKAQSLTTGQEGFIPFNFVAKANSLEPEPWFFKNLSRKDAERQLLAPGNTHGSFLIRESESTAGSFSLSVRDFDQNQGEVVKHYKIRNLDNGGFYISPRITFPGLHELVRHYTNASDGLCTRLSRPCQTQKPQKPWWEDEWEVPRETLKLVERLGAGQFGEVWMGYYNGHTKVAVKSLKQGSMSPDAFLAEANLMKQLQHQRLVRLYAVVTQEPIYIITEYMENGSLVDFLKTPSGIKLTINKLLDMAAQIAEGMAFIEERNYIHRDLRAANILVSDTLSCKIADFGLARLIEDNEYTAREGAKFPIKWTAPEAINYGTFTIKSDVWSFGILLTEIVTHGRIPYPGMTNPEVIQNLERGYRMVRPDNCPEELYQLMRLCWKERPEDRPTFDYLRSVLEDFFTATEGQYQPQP
UniProt P53667: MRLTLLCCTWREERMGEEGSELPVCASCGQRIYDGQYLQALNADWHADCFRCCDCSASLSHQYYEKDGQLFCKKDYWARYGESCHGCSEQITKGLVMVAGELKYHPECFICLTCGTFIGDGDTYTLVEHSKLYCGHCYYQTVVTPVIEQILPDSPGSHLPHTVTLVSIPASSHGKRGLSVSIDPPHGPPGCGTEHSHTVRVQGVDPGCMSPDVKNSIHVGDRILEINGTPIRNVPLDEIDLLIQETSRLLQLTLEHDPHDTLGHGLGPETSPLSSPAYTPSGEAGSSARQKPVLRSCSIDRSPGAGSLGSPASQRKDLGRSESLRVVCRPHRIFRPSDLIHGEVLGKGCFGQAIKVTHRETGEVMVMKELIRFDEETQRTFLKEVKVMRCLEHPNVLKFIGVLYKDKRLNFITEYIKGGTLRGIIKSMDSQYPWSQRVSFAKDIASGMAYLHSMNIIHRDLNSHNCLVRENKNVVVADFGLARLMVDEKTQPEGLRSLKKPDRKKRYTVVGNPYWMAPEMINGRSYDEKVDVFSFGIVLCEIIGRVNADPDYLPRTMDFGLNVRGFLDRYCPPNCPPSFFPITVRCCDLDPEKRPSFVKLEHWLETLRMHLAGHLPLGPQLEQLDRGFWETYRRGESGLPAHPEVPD
UniProt P53671: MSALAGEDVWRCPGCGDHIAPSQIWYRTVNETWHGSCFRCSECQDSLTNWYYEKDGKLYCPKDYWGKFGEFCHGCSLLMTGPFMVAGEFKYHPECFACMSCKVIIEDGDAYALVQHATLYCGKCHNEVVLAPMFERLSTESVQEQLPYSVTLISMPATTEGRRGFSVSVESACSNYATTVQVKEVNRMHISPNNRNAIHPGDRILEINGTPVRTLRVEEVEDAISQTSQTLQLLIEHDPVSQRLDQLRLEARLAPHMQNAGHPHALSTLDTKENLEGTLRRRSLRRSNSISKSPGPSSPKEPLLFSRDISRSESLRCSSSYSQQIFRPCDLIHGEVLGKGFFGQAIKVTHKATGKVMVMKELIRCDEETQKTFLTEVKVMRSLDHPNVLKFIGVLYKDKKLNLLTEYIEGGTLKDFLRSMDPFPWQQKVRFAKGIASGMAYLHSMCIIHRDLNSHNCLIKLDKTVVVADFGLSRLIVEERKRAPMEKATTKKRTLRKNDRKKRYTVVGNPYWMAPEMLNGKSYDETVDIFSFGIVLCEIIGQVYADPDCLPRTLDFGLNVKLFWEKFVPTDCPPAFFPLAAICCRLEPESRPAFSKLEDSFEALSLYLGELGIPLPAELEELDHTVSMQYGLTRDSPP
UniProt Q8IWU2: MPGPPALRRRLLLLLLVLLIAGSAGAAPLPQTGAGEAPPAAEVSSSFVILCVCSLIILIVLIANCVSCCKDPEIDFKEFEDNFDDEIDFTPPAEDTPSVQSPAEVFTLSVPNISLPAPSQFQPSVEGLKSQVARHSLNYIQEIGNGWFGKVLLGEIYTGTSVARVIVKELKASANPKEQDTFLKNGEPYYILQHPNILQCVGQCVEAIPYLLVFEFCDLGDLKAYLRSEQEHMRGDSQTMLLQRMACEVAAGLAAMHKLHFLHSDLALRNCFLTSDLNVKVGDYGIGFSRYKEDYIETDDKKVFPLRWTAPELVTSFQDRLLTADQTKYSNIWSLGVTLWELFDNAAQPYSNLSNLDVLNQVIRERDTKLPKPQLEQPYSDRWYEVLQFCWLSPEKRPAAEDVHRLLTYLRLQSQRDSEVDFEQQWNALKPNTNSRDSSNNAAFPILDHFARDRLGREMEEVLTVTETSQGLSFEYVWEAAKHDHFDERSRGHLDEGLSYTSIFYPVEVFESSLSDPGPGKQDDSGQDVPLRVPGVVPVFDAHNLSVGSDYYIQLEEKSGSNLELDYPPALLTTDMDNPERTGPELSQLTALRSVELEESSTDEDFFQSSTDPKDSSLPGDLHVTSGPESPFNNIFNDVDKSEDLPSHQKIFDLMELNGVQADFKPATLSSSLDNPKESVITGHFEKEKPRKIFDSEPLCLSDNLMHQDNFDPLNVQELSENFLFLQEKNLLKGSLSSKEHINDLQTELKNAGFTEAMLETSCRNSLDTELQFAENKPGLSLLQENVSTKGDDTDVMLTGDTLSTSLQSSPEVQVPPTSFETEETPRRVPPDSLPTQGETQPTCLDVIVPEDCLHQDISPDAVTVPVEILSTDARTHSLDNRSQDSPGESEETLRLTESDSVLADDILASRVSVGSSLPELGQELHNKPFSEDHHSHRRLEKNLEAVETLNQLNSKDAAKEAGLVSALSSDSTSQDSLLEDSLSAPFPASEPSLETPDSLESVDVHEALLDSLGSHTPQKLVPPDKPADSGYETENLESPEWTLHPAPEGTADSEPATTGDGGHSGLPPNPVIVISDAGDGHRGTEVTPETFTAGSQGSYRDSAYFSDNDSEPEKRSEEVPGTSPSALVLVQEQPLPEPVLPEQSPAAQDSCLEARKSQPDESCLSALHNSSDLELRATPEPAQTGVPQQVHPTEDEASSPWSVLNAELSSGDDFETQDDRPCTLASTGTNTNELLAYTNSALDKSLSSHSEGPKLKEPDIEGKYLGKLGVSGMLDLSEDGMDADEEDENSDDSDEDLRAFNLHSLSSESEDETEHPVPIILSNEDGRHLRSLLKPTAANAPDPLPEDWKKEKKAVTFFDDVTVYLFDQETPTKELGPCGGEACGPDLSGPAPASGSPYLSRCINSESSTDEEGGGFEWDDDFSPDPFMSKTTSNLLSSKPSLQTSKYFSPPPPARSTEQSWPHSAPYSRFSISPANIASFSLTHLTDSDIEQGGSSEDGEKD
UniProt P07948: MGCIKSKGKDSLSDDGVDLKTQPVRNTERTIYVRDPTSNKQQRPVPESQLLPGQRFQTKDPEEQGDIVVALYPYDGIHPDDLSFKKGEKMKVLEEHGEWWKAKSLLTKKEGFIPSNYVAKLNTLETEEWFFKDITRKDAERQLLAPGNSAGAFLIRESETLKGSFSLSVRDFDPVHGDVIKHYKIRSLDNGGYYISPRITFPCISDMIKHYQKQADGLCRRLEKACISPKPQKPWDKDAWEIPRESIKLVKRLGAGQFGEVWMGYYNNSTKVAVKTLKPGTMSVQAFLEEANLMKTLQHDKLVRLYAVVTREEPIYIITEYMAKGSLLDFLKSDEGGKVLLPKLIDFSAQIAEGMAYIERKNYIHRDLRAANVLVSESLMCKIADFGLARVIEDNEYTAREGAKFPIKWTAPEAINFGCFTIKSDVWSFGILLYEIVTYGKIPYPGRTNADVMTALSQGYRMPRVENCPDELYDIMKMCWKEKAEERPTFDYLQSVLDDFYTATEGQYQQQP
UniProt Q12851: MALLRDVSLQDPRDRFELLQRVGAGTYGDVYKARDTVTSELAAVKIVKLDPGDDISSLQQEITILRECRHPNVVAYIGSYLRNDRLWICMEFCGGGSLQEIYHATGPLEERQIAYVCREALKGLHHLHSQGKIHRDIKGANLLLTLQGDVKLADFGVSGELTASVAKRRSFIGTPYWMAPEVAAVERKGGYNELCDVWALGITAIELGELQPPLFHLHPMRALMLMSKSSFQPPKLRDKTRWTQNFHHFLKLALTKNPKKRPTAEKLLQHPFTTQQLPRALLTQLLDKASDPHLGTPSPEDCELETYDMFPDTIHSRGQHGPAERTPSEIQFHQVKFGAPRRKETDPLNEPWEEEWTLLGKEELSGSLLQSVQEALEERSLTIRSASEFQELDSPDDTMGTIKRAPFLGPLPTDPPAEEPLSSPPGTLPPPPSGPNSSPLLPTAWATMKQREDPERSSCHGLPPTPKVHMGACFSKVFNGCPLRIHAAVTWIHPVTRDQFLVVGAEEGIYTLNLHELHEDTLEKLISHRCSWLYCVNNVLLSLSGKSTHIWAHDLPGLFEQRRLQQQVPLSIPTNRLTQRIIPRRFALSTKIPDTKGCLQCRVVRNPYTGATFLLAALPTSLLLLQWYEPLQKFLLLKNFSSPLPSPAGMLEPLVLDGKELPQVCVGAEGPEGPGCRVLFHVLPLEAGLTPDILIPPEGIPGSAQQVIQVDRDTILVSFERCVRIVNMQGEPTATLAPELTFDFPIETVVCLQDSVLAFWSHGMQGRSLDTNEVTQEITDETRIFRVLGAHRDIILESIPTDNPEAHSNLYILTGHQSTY

Columns and labels:
Test in all cases: kinase-Nluc reporter destabilization hit call (1 = scored as downregulated) (binary); higher = compound decreases kinase abundance
Conditions in all cases: K562, 2-18 h
[1] = biological target: IRAK3 (UniProt Q9Y616)
[2] = biological target: JAK1 (UniProt P23458)
[3] = biological target: LCK (UniProt P06239)
[4] = biological target: LIMK1 (UniProt P53667)
[5] = biological target: LIMK2 (UniProt P53671)
[6] = biological target: LMTK2 (UniProt Q8IWU2)
[7] = biological target: LYN (UniProt P07948)
[8] = biological target: MAP2K1 (UniProt Q02750)
[9] = biological target: MAP2K2 (UniProt P36507)
[10] = biological target: MAP4K2 (UniProt Q12851)

Measured: kinase-Nluc reporter destabilization hit call

CCCCCCCCc1ccc(CCC(N)(CO)CO)cc1 [Fingolimod]
inactive: [1]; 2.5 µM 0 | [2]; 2.5 µM 0 | [3]; 2.5 µM 0 | [4]; 2.5 µM 0 | [5]; 2.5 µM 0 | [6]; 2.5 µM 0 | [7]; 2.5 µM 0 | [8]; 2.5 µM 0 | [9]; 2.5 µM 0 | [10]; 2.5 µM 0

C[S+]([O-])c1ccc(-c2nc(-c3ccc(F)cc3)c(-c3ccncc3)[nH]2)cc1 (configuration not stated)
inactive: [1]; 10 µM 0 | [2]; 10 µM 0 | [3]; 10 µM 0 | [4]; 10 µM 0 | [5]; 10 µM 0 | [6]; 10 µM 0 | [7]; 10 µM 0 | [8]; 10 µM 0 | [9]; 10 µM 0 | [10]; 10 µM 0

COc1ccc2c(c1)C(c1ccc(F)cc1)=C(CN1CCCC1)CO2 [AX-024 hydrochloride]
inactive: [1]; 10 µM 0 | [2]; 10 µM 0 | [3]; 10 µM 0 | [4]; 10 µM 0 | [5]; 10 µM 0 | [6]; 10 µM 0 | [7]; 10 µM 0 | [8]; 10 µM 0 | [9]; 10 µM 0 | [10]; 10 µM 0

COCCOc1cc(F)c2c(Nc3ccc(NC(=O)Cn4cc(C(C)C)nn4)cc3)ncnc2c1 [AZD3229 Tosylate]
inactive: [1]; 10 µM 0 | [2]; 10 µM 0 | [3]; 10 µM 0 | [4]; 10 µM 0 | [5]; 10 µM 0 | [6]; 10 µM 0 | [7]; 10 µM 0 | [8]; 10 µM 0 | [9]; 10 µM 0 | [10]; 10 µM 0

N#CCNC(=O)c1ccc(-c2ccnc(Nc3ccc(N4CCOCC4)cc3)n2)cc1 [Momelotinib]
inactive: [1]; 10 µM 0 | [2]; 10 µM 0 | [3]; 10 µM 0 | [4]; 10 µM 0 | [5]; 10 µM 0 | [6]; 10 µM 0 | [7]; 10 µM 0 | [8]; 10 µM 0 | [9]; 10 µM 0 | [10]; 10 µM 0

Cn1ncc(Cl)c1-c1cc(C(=O)N[C@H](CN)Cc2cccc(F)c2)sc1Cl [Afuresertib]
inactive: [1]; 10 µM 0 | [2]; 10 µM 0 | [3]; 10 µM 0 | [4]; 10 µM 0 | [5]; 10 µM 0 | [6]; 10 µM 0 | [7]; 10 µM 0 | [8]; 10 µM 0 | [9]; 10 µM 0 | [10]; 10 µM 0

A draw from above in order of molecular weight, descending:
Cn1ncc(Cl)c1-c1cc(C(=O)N[C@H](CN)Cc2cccc(F)c2)sc1Cl [Afuresertib]
inactive: [1]; 10 µM 0 | [2]; 10 µM 0 | [3]; 10 µM 0 | [4]; 10 µM 0 | [5]; 10 µM 0 | [6]; 10 µM 0 | [7]; 10 µM 0 | [8]; 10 µM 0 | [9]; 10 µM 0 | [10]; 10 µM 0

N#CCNC(=O)c1ccc(-c2ccnc(Nc3ccc(N4CCOCC4)cc3)n2)cc1 [Momelotinib]
inactive: [1]; 10 µM 0 | [2]; 10 µM 0 | [3]; 10 µM 0 | [4]; 10 µM 0 | [5]; 10 µM 0 | [6]; 10 µM 0 | [7]; 10 µM 0 | [8]; 10 µM 0 | [9]; 10 µM 0 | [10]; 10 µM 0

COc1ccc2c(c1)C(c1ccc(F)cc1)=C(CN1CCCC1)CO2 [AX-024 hydrochloride]
inactive: [1]; 10 µM 0 | [2]; 10 µM 0 | [3]; 10 µM 0 | [4]; 10 µM 0 | [5]; 10 µM 0 | [6]; 10 µM 0 | [7]; 10 µM 0 | [8]; 10 µM 0 | [9]; 10 µM 0 | [10]; 10 µM 0

More compounds:

O=C(c1ccc(F)c(F)c1Nc1ccc(I)cc1F)N1CC(O)([C@@H]2CCCCN2)C1 [Cobimetinib (hemifumarate)]
inactive: [1]; 10 µM 0 | [2]; 10 µM 0 | [3]; 10 µM 0 | [4]; 10 µM 0 | [5]; 10 µM 0 | [6]; 10 µM 0 | [7]; 10 µM 0 | [8]; 10 µM 0 | [9]; 10 µM 0 | [10]; 10 µM 0

c1cc(-c2cnn3cc(-c4ccc(OCCN5CCCCC5)cc4)cnc23)ccn1 [Dorsomorphin]
inactive: [1]; 2.5 µM 0 | [2]; 2.5 µM 0 | [3]; 2.5 µM 0 | [4]; 2.5 µM 0 | [5]; 2.5 µM 0 | [6]; 2.5 µM 0 | [7]; 2.5 µM 0 | [8]; 2.5 µM 0 | [9]; 2.5 µM 0 | [10]; 2.5 µM 0

FC(F)(F)c1ccc(CNc2ccc(Cc3c[nH]c4ncc(Cl)cc34)cn2)cn1 [Pexidartinib]
inactive: [1]; 10 µM 0 | [2]; 10 µM 0 | [3]; 10 µM 0 | [4]; 10 µM 0 | [5]; 10 µM 0 | [6]; 10 µM 0 | [7]; 10 µM 0 | [8]; 10 µM 0 | [9]; 10 µM 0 | [10]; 10 µM 0

CC(=O)c1c(C)c2cnc(Nc3ccc(N4CCNCC4)cn3)nc2n(C2CCCC2)c1=O [Palbociclib (monohydrochloride)]
inactive: [1]; 10 µM 0 | [2]; 10 µM 0 | [4]; 10 µM 0 | [5]; 10 µM 0 | [6]; 10 µM 0 | [7]; 10 µM 0 | [8]; 10 µM 0 | [9]; 10 µM 0 | [10]; 10 µM 0

COc1cc(/C=C/C(=O)O)ccc1O [Ferulic acid (sodium)]
inactive: [1]; 10 µM 0 | [2]; 10 µM 0 | [3]; 10 µM 0 | [4]; 10 µM 0 | [5]; 10 µM 0 | [6]; 10 µM 0 | [7]; 10 µM 0 | [8]; 10 µM 0 | [9]; 10 µM 0 | [10]; 10 µM 0

COc1ccnc(C[S+]([O-])c2nc3cc(-n4cccc4)ccc3[nH]2)c1C (configuration not stated) [Ilaprazole]
inactive: [1]; 10 µM 0 | [2]; 10 µM 0 | [3]; 10 µM 0 | [4]; 10 µM 0 | [5]; 10 µM 0 | [6]; 10 µM 0 | [7]; 10 µM 0 | [8]; 10 µM 0 | [9]; 10 µM 0 | [10]; 10 µM 0

COc1cc2c(-c3cnn4cc(N5CCC(N6CCN(C)CC6)CC5)cnc34)ccnc2cc1F [ALK2-IN-4 (succinate)]
inactive: [1]; 10 µM 0 | [2]; 10 µM 0 | [3]; 10 µM 0 | [4]; 10 µM 0 | [5]; 10 µM 0 | [6]; 10 µM 0 | [7]; 10 µM 0 | [8]; 10 µM 0 | [9]; 10 µM 0 | [10]; 10 µM 0

CC(C)(C)n1nc(-c2cccc3ccccc23)c2c(N)ncnc21 [1-Naphthyl PP1 (hydrochloride)]
inactive: [1]; 10 µM 0 | [2]; 10 µM 0 | [4]; 10 µM 0 | [5]; 10 µM 0 | [6]; 10 µM 0 | [7]; 10 µM 0 | [8]; 10 µM 0 | [9]; 10 µM 0 | [10]; 10 µM 0

O=C1Nc2ccccc2/C1=C/c1ccccn1 [(E/Z)-GSK-3β inhibitor 1]
inactive: [1]; 10 µM 0 | [2]; 10 µM 0 | [3]; 10 µM 0 | [4]; 10 µM 0 | [5]; 10 µM 0 | [6]; 10 µM 0 | [7]; 10 µM 0 | [8]; 10 µM 0 | [9]; 10 µM 0 | [10]; 10 µM 0

CC(C)NC[C@@H](C(=O)N1CCN(c2ncnc3c2[C@H](C)C[C@H]3O)CC1)c1ccc(Cl)cc1 [Ipatasertib (dihydrochloride)]
inactive: [1]; 10 µM 0 | [2]; 10 µM 0 | [3]; 10 µM 0 | [4]; 10 µM 0 | [5]; 10 µM 0 | [6]; 10 µM 0 | [7]; 10 µM 0 | [8]; 10 µM 0 | [9]; 10 µM 0 | [10]; 10 µM 0

CCS(=O)(=O)N1CC(CC#N)(n2cc(-c3ncnc4[nH]ccc34)cn2)C1 [Baricitinib (phosphate)]
inactive: [1]; 10 µM 0 | [3]; 10 µM 0 | [4]; 10 µM 0 | [5]; 10 µM 0 | [6]; 10 µM 0 | [7]; 10 µM 0 | [8]; 10 µM 0 | [9]; 10 µM 0 | [10]; 10 µM 0

Nc1cncc(-c2cn3ccnc3c(Nc3ccc(N4CCN(C5COC5)CC4)cc3)n2)n1 [Lanraplenib]
inactive: [1]; 10 µM 0 | [2]; 10 µM 0 | [3]; 10 µM 0 | [4]; 10 µM 0 | [5]; 10 µM 0 | [6]; 10 µM 0 | [7]; 10 µM 0 | [8]; 10 µM 0 | [9]; 10 µM 0 | [10]; 10 µM 0

C[C@H](CCC(=O)NCCS(=O)(=O)O)[C@H]1CC[C@H]2[C@@H]3[C@@H](O)C[C@@H]4C[C@H](O)CC[C@]4(C)[C@H]3CC[C@]12C [Tauroursodeoxycholate (dihydrate)]
inactive: [1]; 10 µM 0 | [2]; 10 µM 0 | [3]; 10 µM 0 | [4]; 10 µM 0 | [5]; 10 µM 0 | [6]; 10 µM 0 | [7]; 10 µM 0 | [8]; 10 µM 0 | [9]; 10 µM 0 | [10]; 10 µM 0
